These are yes or no findings as the source states them, for the method shown. In cells and extracts the contact can be indirect. Here binding means that the protein was enriched with, or labelled near, the bait; the list need not be complete.
Molecular target: HA-tagged PP2A (serine/threonine phosphatase PP2A of S. acidocaldarius) (S. acidocaldarius) (UniProt Q4JAD1)
Experiment: affinity purification with mass spectrometry; anti-HA magnetic beads (Pierce HA-tag IP/co-IP kit) on cytoplasmic fraction of S. acidocaldarius with chromosomally HA-tagged PP2A, 0.5 h in starvation medium; no cross-linker; MW001 as control; LC-MS/MS, label-free quantification

Protein sequences, listed by entry. Tags and fused reporters are not part of them. Lines headed by an entry give the natural chain unless they say otherwise; changes in a name come on top.
UniProt Q4JAD1: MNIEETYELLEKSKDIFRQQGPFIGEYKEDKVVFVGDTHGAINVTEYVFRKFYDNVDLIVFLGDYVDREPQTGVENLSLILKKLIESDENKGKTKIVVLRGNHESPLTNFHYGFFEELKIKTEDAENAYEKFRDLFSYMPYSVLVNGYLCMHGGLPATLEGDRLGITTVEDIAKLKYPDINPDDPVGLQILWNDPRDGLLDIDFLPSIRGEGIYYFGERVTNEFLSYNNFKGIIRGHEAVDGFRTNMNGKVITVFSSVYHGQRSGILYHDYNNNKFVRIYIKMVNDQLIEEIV

Row | Binder | binding
1 | conserved putative ATP/GTP binding protein Saci_1281 (protein, UniProt Q4J9A7 1-254) MYFIFVLGTAGSGKTTLVKALQDYLLNNELDTAIINLDPAVEVLPYKPDIDAREYVDVYDVMNKYELGPNSSLVISVDLLLTKAKELKEDLNQLQANYVLVDTPGQIELFAYRDTGKILSSFISEGSKSVSVFLFDSYLSKDPKSFLSLFLLSSSIKFRIDMPQISVLSKVDLLSSSELERMRSWIEDGSIIDELGSIDEYSFELVKTIVENLESFPIPVSSTNFSGLDQLYAEVQKVLAGGEDFETEEPNPRL | binds
2 | universal stress protein Saci_0887 (protein, UniProt Q4JAC8 1-128) MKFLIAYDGSEQSKKAVRFLLRILKKEDEVYVITVIKEAPRSPDQKIIEDEKKAEGLHKEVLELFPSAKSAIIESGDVVSTIIDYCERVNCDMIVTGSRGLTGIKKVVIGSVSSALIEKAKVPILVVK | binds
